Results on one molecule are retold here after paper PMC10226814.

No constants are given. Whether binding was seen depends on the method and setting. In cells and extracts the contact can be indirect. Some results given as binding are weak or reduced against the parent protein; the word gives no strength.

The target of the assay is T1, endothelial nitric oxide synthase (rat (endogenous in penile corpus cavernosum)) (UniProt Q62600).
T1 sequence: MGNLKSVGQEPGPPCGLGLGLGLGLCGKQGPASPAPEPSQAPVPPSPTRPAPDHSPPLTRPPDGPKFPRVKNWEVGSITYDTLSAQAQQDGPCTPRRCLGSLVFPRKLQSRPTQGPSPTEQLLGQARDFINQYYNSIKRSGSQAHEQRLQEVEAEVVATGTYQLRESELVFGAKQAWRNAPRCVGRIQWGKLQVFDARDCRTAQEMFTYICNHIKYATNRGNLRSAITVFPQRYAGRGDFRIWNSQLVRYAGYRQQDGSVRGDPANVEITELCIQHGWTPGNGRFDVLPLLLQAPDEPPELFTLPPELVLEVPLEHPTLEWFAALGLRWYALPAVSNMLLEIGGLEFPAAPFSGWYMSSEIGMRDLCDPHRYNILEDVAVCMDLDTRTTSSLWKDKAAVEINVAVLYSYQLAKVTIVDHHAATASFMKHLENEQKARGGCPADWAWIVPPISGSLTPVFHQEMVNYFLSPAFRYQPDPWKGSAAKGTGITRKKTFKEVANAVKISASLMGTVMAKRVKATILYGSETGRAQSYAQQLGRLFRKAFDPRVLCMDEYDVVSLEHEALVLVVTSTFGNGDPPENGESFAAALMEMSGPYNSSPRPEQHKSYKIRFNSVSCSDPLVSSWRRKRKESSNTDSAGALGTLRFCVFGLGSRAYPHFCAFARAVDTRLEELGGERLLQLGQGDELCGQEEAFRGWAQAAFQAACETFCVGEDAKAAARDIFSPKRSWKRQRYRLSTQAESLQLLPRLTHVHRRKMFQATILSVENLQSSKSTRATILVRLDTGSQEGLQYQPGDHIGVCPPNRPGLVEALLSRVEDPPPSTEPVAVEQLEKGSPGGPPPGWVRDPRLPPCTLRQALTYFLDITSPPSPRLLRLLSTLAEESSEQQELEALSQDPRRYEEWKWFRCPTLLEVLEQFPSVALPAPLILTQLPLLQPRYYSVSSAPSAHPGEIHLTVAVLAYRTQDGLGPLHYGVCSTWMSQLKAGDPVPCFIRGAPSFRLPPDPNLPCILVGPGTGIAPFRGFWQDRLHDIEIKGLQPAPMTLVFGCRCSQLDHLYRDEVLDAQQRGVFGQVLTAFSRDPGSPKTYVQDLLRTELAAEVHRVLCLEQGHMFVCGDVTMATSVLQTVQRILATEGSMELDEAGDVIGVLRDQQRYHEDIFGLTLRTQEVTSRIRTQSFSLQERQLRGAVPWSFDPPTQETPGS
The assay can be described thus: co-IP; eNOS precipitated from rat penile tissue lysate with anti-eNOS antibody and protein A + G agarose, 4 °C overnight, washed 5 times, blotted for GIT1; groups: sham operated, castration, testosterone supplement after castration, castration + vacant lentivirus, castration + GIT1 lentivirus.

B1: G protein–coupled receptor kinase interactor 1 (protein, UniProt Q9Z272 1-770)
chain: MSRKGPRAEVCADCSAPDPGWASISRGVLVCDECCSVHRSLGRHISIVKHLRHSAWPPTLLQMVHTLASNGANSIWEHSLLDPAQVQSGRRKANPQDKVHPIKSEFIRAKYQMLAFVHKLPCRDDDGVTAKDLSKQLHSSVRTGNLETCLRLLSLGAQANFFHPEKGTTPLHVAAKAGQTLQAELLVVYGADPGSPDVNGRTPIDYARQAGHHELAERLVECQYELTDRLAFYLCGRKPDHKNGHYIIPQMADRSRQKCMSQSLDLSELAKAAKKKLQALSNRLFEELAMDVYDEVDRRENDAVWLATQNHSTLVTERSAVPFLPVNPEYSATRNQGRQKLARFNAREFATLIIDILSEAKRRQQGKSLSSPTDNLELSARNQSDLDDQHDYDSVASDEDTDQEPLPSAGATRNNRARSMDSSDLSDGAVTLQEYLELKKALATSEAKVQQLMKVNSSLSDELRKLQREIHKLQAENLQLRQPPGPVPVPSLPSERAEHTLMGPGGSTHRRDRQAFSMYEPGSALKPFGGAPGDELATRLQPFHSTELEDDAIYSVHVPAGLYRIRKGVSASSVTFTPSSPLLSSSQEGSRHASKLSRHGSGAESDYENTQSGEPLLGLEGKRFLELSKEDELHAELESLDGDPDPGLPSTEDVILKTEQVTKNIQELLRAAQEFKHDSFVPCSEKIHLAVTEMASLFPKRPALEPVRSSLRLLNASAYRLQSECRKTVPPEPGAPVDFQLLTQQVIQCAYDIAKAAKQLVTITTREKKQ
On to B1, for which the binding entry is listed as “binds”.
